Measured data: PubChem BioAssay AID1159584 (Peter MacCallum Cancer Centre, 2016)
Here is one part, drawn at random, of about 18,000 deposited reagents. Not all columns of the deposit are shown. Reagent sequences are not shown. Not stated in the record: the amount of reagent, the time to read-out.

Purpose: 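Genes whose loss is lethal only together with E-cadherin loss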 (primary screen)
Cell system: human MCF10A breast epithelial cells, parental and CDH1-null
Reagent: siRNA against human genes
Measurement: 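ATP luminescence (CellTiter-Glo) viability per line relative to mean mock wells over all plates, and the ratio of CDH1-null to parental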
Direction: CDH1-null / parental viability ratio: higher = CDH1-null cells survive relatively better than parental

MRPL18
- CDH1-null / parental viability ratio: 1.14

KRTAP23-1
- CDH1-null / parental viability ratio: 1.05

IQCJ
- CDH1-null / parental viability ratio: 0.88

PRR14L
- CDH1-null / parental viability ratio: 1.04

CIAO2A
- CDH1-null / parental viability ratio: 1.03

KRTAP5-5
- CDH1-null / parental viability ratio: 1.35

HIF1AN
- CDH1-null / parental viability ratio: 1.1

HNRNPA3
- CDH1-null / parental viability ratio: 0.74

RTCA
- CDH1-null / parental viability ratio: 0.86

ZMPSTE24
- CDH1-null / parental viability ratio: 1.13

CORT
- CDH1-null / parental viability ratio: 0.87

CD48
- CDH1-null / parental viability ratio: 1.07

HOXB3
- CDH1-null / parental viability ratio: 0.87

BPHL
- CDH1-null / parental viability ratio: 0.78

Looked up above.
Result for MRPL18 under “CDH1-null / parental viability ratio”: 1.14
Under “CDH1-null / parental viability ratio”, HOXB3 reads 0.87

Continued:
FASLG
- CDH1-null / parental viability ratio: 0.86

SOCS1
- CDH1-null / parental viability ratio: 1.03

ALPI
- CDH1-null / parental viability ratio: 1.27

GAPDH
- CDH1-null / parental viability ratio: 0.88

PAAF1
- CDH1-null / parental viability ratio: 1.2

TDRKH
- CDH1-null / parental viability ratio: 0.89

NPHP3
- CDH1-null / parental viability ratio: 0.9

NBPF1
- CDH1-null / parental viability ratio: 1.27

LIMD2
- CDH1-null / parental viability ratio: 0.79

SFR1
- CDH1-null / parental viability ratio: 1.08
